# The supplement of paper PMC8728848
# Some of the results follow.
# Tests used:
# Assay in all cases: glycan array binding signal (z-score within array); higher = stronger binding
# Details in all cases: glycan notation: IUPAC condensed, linker removed
# [1] = molecular target: Fuc(a1-2)[Gal(a1-3)]Gal(b1-4)GlcNAc(b1-2)Man(a1-3)[Fuc(a1-2)[Gal(a1-3)]Gal(b1-4)GlcNAc(b1-2)Man(a1-6)]Man(b1-4)GlcNAc(b1-4)GlcNAc
# Method in brief: (§1)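 Glycan array binding is given as a within-array Z-score, which can be read as non-binding when negative. The arrays, 3228 of them, came from the Consortium for Functional Glycomics database and were retained only where the protein sequence was available. Z-scores were averaged across arrays of the same protein sequence at different concentrations or buffers and across linkers.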
# [2] = molecular target: Fuc(a1-2)[Gal(a1-3)]Gal(b1-4)GlcNAc(b1-2)Man(a1-3)[Fuc(a1-2)[Gal(a1-3)]Gal(b1-4)GlcNAc(b1-2)Man(a1-6)]Man(b1-4)GlcNAc(b1-4)[Fuc(a1-6)]GlcNAc
# Method in brief: as §1
# [3] = molecular target: Fuc(a1-2)[Gal(a1-3)]Gal(b1-4)GlcNAc(b1-3)GalNAc
# Method in brief: as §1
# [4] = molecular target: Fuc(a1-2)[Gal(a1-3)]Gal(b1-4)GlcNAc(b1-3)[Fuc(a1-2)[Gal(a1-3)]Gal(b1-4)GlcNAc(b1-6)]GalNAc
# Method in brief: as §1
# [5] = molecular target: Fuc(a1-2)[Gal(a1-3)]Gal(b1-4)GlcNAc(b1-6)GalNAc
# Method in brief: as §1
# [6] = molecular target: Fuc(a1-2)[Gal(a1-3)]Gal(b1-4)[Fuc(a1-3)]Glc
# Method in brief: as §1
# [7] = molecular target: Fuc(a1-2)[Gal(a1-3)]Gal(b1-4)[Fuc(a1-3)]GlcNAc
# Method in brief: as §1
# [8] = molecular target: Fuc(a1-2)[Gal(a1-3)]Gal(b1-4)[Fuc(a1-3)]GlcNAc(b1-3)GalNAc
# Method in brief: as §1
# [9] = molecular target: Fuc(a1-2)[Gal(a1-4)]Gal(b1-4)GlcNAc
# Method in brief: as §1
# [10] = molecular target: Fuc(a1-2)[GalNAc(a1-3)]Gal
# Method in brief: as §1
# [11] = molecular target: Fuc(a1-2)[GalNAc(a1-3)]Gal(b1-3)GalNAc(a1-3)[Fuc(a1-2)]Gal(b1-4)GlcNAc
# Method in brief: as §1
# [12] = molecular target: Fuc(a1-2)[GalNAc(a1-3)]Gal(b1-3)GalNAc(b1-3)Gal(a1-4)Gal(b1-4)Glc
# Method in brief: as §1
# [13] = molecular target: Fuc(a1-2)[GalNAc(a1-3)]Gal(b1-3)GlcNAc
# Method in brief: as §1
# [14] = molecular target: Fuc(a1-2)[GalNAc(a1-3)]Gal(b1-3)GlcNAc(b1-2)Man(a1-3)[Fuc(a1-2)[GalNAc(a1-3)]Gal(b1-3)GlcNAc(b1-2)Man(a1-6)]Man(b1-4)GlcNAc(b1-4)GlcNAc
# Method in brief: as §1
# [15] = molecular target: Fuc(a1-2)[GalNAc(a1-3)]Gal(b1-3)GlcNAc(b1-2)Man(a1-3)[Fuc(a1-2)[GalNAc(a1-3)]Gal(b1-3)GlcNAc(b1-2)Man(a1-6)]Man(b1-4)GlcNAc(b1-4)[Fuc(a1-6)]GlcNAc
# Method in brief: as §1
# [16] = molecular target: Fuc(a1-2)[GalNAc(a1-3)]Gal(b1-3)GlcNAc(b1-3)GalNAc
# Method in brief: as §1
# [17] = molecular target: Fuc(a1-2)[GalNAc(a1-3)]Gal(b1-3)GlcNAc(b1-6)GalNAc
# Method in brief: as §1
# [18] = molecular target: Fuc(a1-2)[GalNAc(a1-3)]Gal(b1-4)Glc
# Method in brief: as §1
# [19] = molecular target: Fuc(a1-2)[GalNAc(a1-3)]Gal(b1-4)GlcNAc
# Method in brief: as §1
# [20] = molecular target: Fuc(a1-2)[GalNAc(a1-3)]Gal(b1-4)GlcNAc(b1-2)Man
# Method in brief: as §1
# [21] = molecular target: Fuc(a1-2)[GalNAc(a1-3)]Gal(b1-4)GlcNAc(b1-2)Man(a1-3)[Fuc(a1-2)[GalNAc(a1-3)]Gal(b1-4)GlcNAc(b1-2)Man(a1-6)]Man(b1-4)GlcNAc(b1-4)GlcNAc
# Method in brief: as §1
# [22] = molecular target: Fuc(a1-2)[GalNAc(a1-3)]Gal(b1-4)GlcNAc(b1-2)Man(a1-3)[Fuc(a1-2)[GalNAc(a1-3)]Gal(b1-4)GlcNAc(b1-2)Man(a1-6)]Man(b1-4)GlcNAc(b1-4)[Fuc(a1-6)]GlcNAc
# Method in brief: as §1
# [23] = molecular target: Fuc(a1-2)[GalNAc(a1-3)]Gal(b1-4)GlcNAc(b1-3)Gal(b1-4)GlcNAc
# Method in brief: as §1
# [24] = molecular target: Fuc(a1-2)[GalNAc(a1-3)]Gal(b1-4)GlcNAc(b1-3)Gal(b1-4)GlcNAc(b1-3)Gal(b1-4)GlcNAc
# Method in brief: as §1
# [25] = molecular target: Fuc(a1-2)[GalNAc(a1-3)]Gal(b1-4)GlcNAc(b1-3)GalNAc
# Method in brief: as §1
# [26] = molecular target: Fuc(a1-2)[GalNAc(a1-3)]Gal(b1-4)GlcNAc(b1-3)[Fuc(a1-2)[GalNAc(a1-3)]Gal(b1-4)GlcNAc(b1-6)]GalNAc
# Method in brief: as §1
# [27] = molecular target: Fuc(a1-2)[GalNAc(a1-3)]Gal(b1-4)GlcNAc(b1-6)GalNAc
# Method in brief: as §1
# [28] = molecular target: Fuc(a1-2)[GalNAc(a1-3)]Gal(b1-4)[Fuc(a1-3)]GlcNAc
# Method in brief: as §1
# [29] = molecular target: Fuc(a1-2)[GalNAc(a1-3)]Gal(b1-4)[Fuc(a1-3)]GlcNAc(b1-3)GalNAc
# Method in brief: as §1
# [30] = molecular target: Fuc(a1-2)[GalNAc(a1-4)]Gal(b1-4)GlcNAc
# Method in brief: as §1
binder,measurement,setting,value
"AT1G80310(18) (Arabidopsis thaliana), Q0WP36 (protein) METTTTPLLPGDRSRCGWLRRRLRLKNPLSSELSGAVGDLGTFIPIVLTLTLVSNLDLSTTLIFTGFYNIATGLLFDIPMPVQPMKSIAAVAVSESPHLTPSQIAAAGASTAATLLLLGATGAMSFLYNIIPLPVVRGVQLSQGLQFAFTAIKYVRFNYDTATLKPSSSPRIWLGLDGLILALAALLFIILSTGSGNDREAEDGDLAETSSNESQSRRRRLRLLSSIPSALIVFALGLVLCFIRDPSIFKDLKFGPSKFHILRISWDDWKIGFLRAAIPQIPLSVLNSVIAVCKLSNDLFDKELSATTVSISVGVMNLIGCWFGAMPVCHGAGGLAGQYRFGARSGLSVIFLGIGKLIVGLVFGNSFVRILSQFPIGILGVLLLFAGIELAMASKDMNSKEDSFIMLVCAAVSMTGSSAALGFGCGVVLYLLLKLRTLDCSSVTLFSRSSDESQVDSEAAPRDV",glycan array binding signal (z-score),[1],0.588
same,glycan array binding signal (z-score),[2],0.431
same,glycan array binding signal (z-score),[3],-1.01
same,glycan array binding signal (z-score),[4],-0.644
same,glycan array binding signal (z-score),[5],0.042
same,glycan array binding signal (z-score),[6],1.54
same,glycan array binding signal (z-score),[7],-0.238
same,glycan array binding signal (z-score),[8],2.13
same,glycan array binding signal (z-score),[9],-0.702
same,glycan array binding signal (z-score),[10],1.64
same,glycan array binding signal (z-score),[11],-0.928
same,glycan array binding signal (z-score),[12],-0.741
same,glycan array binding signal (z-score),[13],-0.66
same,glycan array binding signal (z-score),[14],-0.171
same,glycan array binding signal (z-score),[15],-0.162
same,glycan array binding signal (z-score),[16],0.205
same,glycan array binding signal (z-score),[17],-0.527
same,glycan array binding signal (z-score),[18],-0.703
same,glycan array binding signal (z-score),[19],1.59
same,glycan array binding signal (z-score),[20],-0.472
same,glycan array binding signal (z-score),[21],-0.944
same,glycan array binding signal (z-score),[22],-0.292
same,glycan array binding signal (z-score),[23],1.68
same,glycan array binding signal (z-score),[24],-0.829
same,glycan array binding signal (z-score),[25],0.291
same,glycan array binding signal (z-score),[26],-0.587
same,glycan array binding signal (z-score),[27],1.43
same,glycan array binding signal (z-score),[28],1.39
same,glycan array binding signal (z-score),[29],1.71
same,glycan array binding signal (z-score),[30],-0.867

# Reformatted bar-delimited: entries from further up.
binder | measurement | setting | value
AT1G80310(18) (Arabidopsis thaliana), Q0WP36 (protein) METTTTPLLPGDRSRCGWLRRRLRLKNPLSSELSGAVGDLGTFIPIVLTLTLVSNLDLSTTLIFTGFYNIATGLLFDIPMPVQPMKSIAAVAVSESPHLTPSQIAAAGASTAATLLLLGATGAMSFLYNIIPLPVVRGVQLSQGLQFAFTAIKYVRFNYDTATLKPSSSPRIWLGLDGLILALAALLFIILSTGSGNDREAEDGDLAETSSNESQSRRRRLRLLSSIPSALIVFALGLVLCFIRDPSIFKDLKFGPSKFHILRISWDDWKIGFLRAAIPQIPLSVLNSVIAVCKLSNDLFDKELSATTVSISVGVMNLIGCWFGAMPVCHGAGGLAGQYRFGARSGLSVIFLGIGKLIVGLVFGNSFVRILSQFPIGILGVLLLFAGIELAMASKDMNSKEDSFIMLVCAAVSMTGSSAALGFGCGVVLYLLLKLRTLDCSSVTLFSRSSDESQVDSEAAPRDV | glycan array binding signal (z-score) | [17] | -0.527
same | glycan array binding signal (z-score) | [18] | -0.703
